From PubChem BioAssay AID248 (DTP/NCI, 2004) come the findings set out here.

The list is a part of this screen's results and no random one: it covers a few groups of compounds. Not every dose and run of a compound is shown. T/C: endpoint of the treated group in % of that of the vehicle group. Some entries give survivors of the animals treated and no T/C: the source holds a T/C of zero for them, seemingly a mark for toxic or unscored doses. Some doses without a T/C left all or most animals alive at the check, yet need not have been tolerated: the source hardly ever lists a survival T/C far under the control, and the zero likely stands for such cases as well. Survivors were counted at the toxicity check, usually on the fifth day, unless a day is given; later deaths do not show. Schedules are NCI's codes, taken here to give the interval after Q, in days (D) or hours (H), and the number of doses after X. For survival time, the PubChem record calls one and a half times the control and up active, and a quarter to a half above the control has no call in these data; cut-offs in other NCI protocols can differ. Some entries were tested several times; the values are given in rising order. Some schedule codes hold Z or #, which are not explained here. Some T/C values are followed by the survivors on the day toxicity was checked, most often the fifth; where neither a count nor a note follows, no animal had died by that day.

The subject of the assay is L1210 leukemia ip in BDF1 mice, survival T/C. Put plainly: NCI In Vivo Anticancer Drug Screen. Data for tumor model L1210 Leukemia (intraperitoneal) in B6D2F1 (BDF1) mice. The note with it: T/C endpoint: mean survival time, higher T/C = longer survival.
Setting [1] is: dose: 1.15 mg/kg/injection, schedule: Q01DX009 (ip), vehicle: other.
[2] abbreviates: dose: 1.75 mg/kg/injection, schedule: Q01DX009 (ip), vehicle: other.
Setting [3] is: dose: 6.3 mg/kg/injection, schedule: Q01DX001 (ip), vehicle: saline.
The mark [4] stands for this setting: dose: 9.45 mg/kg/injection, schedule: Q01DX001 (ip), vehicle: saline.

As to `Cn1cc(N(CCCl)CCCl)c(=O)[nH]c1=O`, the T/C is 106 % of control (dose: 0.19 mg/kg/injection, schedule: Q01DX009 (ip), vehicle: saline); 93 % of control (dose: 0.19 mg/kg/injection, schedule: Q04DX003 (ip), vehicle: Klucel (hydroxypropylcellulose) (HPC)); 106 % of control (dose: 0.2 mg/kg/injection, schedule: Q01DX009 (ip), vehicle: Klucel (hydroxypropylcellulose) (HPC)); 106 % of control (dose: 0.39 mg/kg/injection, schedule: Q01DX009 (ip), vehicle: saline); 96 % of control (dose: 0.39 mg/kg/injection, schedule: Q04DX003 (ip), vehicle: Klucel (hydroxypropylcellulose) (HPC)); 114 % of control (dose: 0.4 mg/kg/injection, schedule: Q01DX009 (ip), vehicle: Klucel (hydroxypropylcellulose) (HPC)). Also, the T/C is 123 % of control (dose: 0.78 mg/kg/injection, schedule: Q01DX009 (ip), vehicle: saline); 105 % of control (dose: 0.78 mg/kg/injection, schedule: Q04DX003 (ip), vehicle: Klucel (hydroxypropylcellulose) (HPC)); 124 % of control (dose: 0.8 mg/kg/injection, schedule: Q01DX009 (ip), vehicle: Klucel (hydroxypropylcellulose) (HPC)); 129 % of control (dose: 0.9 mg/kg/injection, schedule: Q01DX Z (ip), vehicle: methylcellulose (MC)); 119 % of control (dose: 1.03 mg/kg/injection, schedule: Q04DX003 (ip), vehicle: saline); 145 % of control (dose: 1.15 mg/kg/injection, schedule: Q01DX009 (ip), vehicle: Klucel (hydroxypropylcellulose) (HPC)). Also, the T/C by setting is: under setting [1], 156 % of control; (dose: 1.3 mg/kg/injection, schedule: Q01DX Z (ip), vehicle: methylcellulose (MC)) 134 % of control; (dose: 1.56 mg/kg/injection, schedule: Q01DX001 (ip), vehicle: Klucel (hydroxypropylcellulose) (HPC)) 97 % of control; (dose: 1.75 mg/kg/injection, schedule: Q01DX009 (ip), vehicle: Klucel (hydroxypropylcellulose) (HPC)) 129 % of control; under setting [2], 162 % of control; (dose: 2.0 mg/kg/injection, schedule: Q01DX Z (ip), vehicle: methylcellulose (MC)) 181 % of control. The T/C was 154 % of control (dose: 2.07 mg/kg/injection, schedule: Q04DX003 (ip), vehicle: saline); 156 % of control (dose: 2.6 mg/kg/injection, schedule: Q01DX009 (ip), vehicle: other); 137 % of control (dose: 2.62 mg/kg/injection, schedule: Q01DX009 (ip), vehicle: Klucel (hydroxypropylcellulose) (HPC)); 152 % of control (dose: 2.73 mg/kg/injection, schedule: Q04DX003 (ip), vehicle: Klucel (hydroxypropylcellulose) (HPC)); 126 % of control (dose: 3.0 mg/kg/injection, schedule: Q01DX Z (ip), vehicle: methylcellulose (MC)); 100 % of control (dose: 3.12 mg/kg/injection, schedule: Q01DX001 (ip), vehicle: Klucel (hydroxypropylcellulose) (HPC)). Besides, the T/C is 121 and 131 % of control (dose: 4.15 mg/kg/injection, schedule: Q01DX001 (ip), vehicle: saline); 182 % of control (dose: 4.15 mg/kg/injection, schedule: Q04DX003 (ip), vehicle: Klucel (hydroxypropylcellulose) (HPC)); 175 % of control (dose: 4.15 mg/kg/injection, schedule: Q04DX003 (ip), vehicle: saline); 117 % of control [5 of 6 alive] (dose: 6.22 mg/kg/injection, schedule: Q04DX003 (ip), vehicle: Klucel (hydroxypropylcellulose) (HPC)); 94 % of control (dose: 6.25 mg/kg/injection, schedule: Q01DX001 (ip), vehicle: Klucel (hydroxypropylcellulose) (HPC)); 125 % of control under setting [3]. Also, the T/C (dose: 9.32 mg/kg/injection, schedule: Q04DX003 (ip), vehicle: saline) is 132 % of control; the T/C under setting [4] is 156 % of control; the T/C (dose: 12.5 mg/kg/injection, schedule: Q01DX001 (ip), vehicle: Klucel (hydroxypropylcellulose) (HPC)) is 158 % of control [5 of 6 alive]; the T/C (dose: 14.13 mg/kg/injection, schedule: Q04DX003 (ip), vehicle: Klucel (hydroxypropylcellulose) (HPC)) is 97 % of control [5 of 6 alive]. Besides, the survivor count runs as follows: under setting [1], 6 of 6; under setting [2], 6 of 6; (dose: 2.62 mg/kg/injection, schedule: Q01DX009 (ip), vehicle: other) 6 of 6; under setting [3], 6 of 6; (dose: 9.32 mg/kg/injection, schedule: Q04DX003 (ip), vehicle: Klucel (hydroxypropylcellulose) (HPC)) 5 of 6; under setting [4], 6 of 6. The survivor count reads like this: (dose: 14.13 mg/kg/injection, schedule: Q04DX003 (ip), vehicle: saline) 1 of 6; (dose: 21.19 mg/kg/injection, schedule: Q04DX003 (ip), vehicle: Klucel (hydroxypropylcellulose) (HPC)) 5 of 6; (dose: 21.19 mg/kg/injection, schedule: Q04DX003 (ip), vehicle: saline) 3 of 6; (dose: 25.0 mg/kg/injection, schedule: Q01DX001 (ip), vehicle: Klucel (hydroxypropylcellulose) (HPC)) 4 of 6; (dose: 50.0 mg/kg/injection, schedule: Q01DX001 (ip), vehicle: Klucel (hydroxypropylcellulose) (HPC)) 3 of 6.

In the case of `O=[As](O)(O)c1ccc(Cl)cc1`, the T/C (dose: 6.25 mg/kg/injection, schedule: Q01DX009 (ip), vehicle: saline with Tween-80) was 96 % of control [5 of 6 alive]. Moreover, the survivor count is, setting by setting: (dose: 12.5 mg/kg/injection, schedule: Q01DX009 (ip), vehicle: saline with Tween-80) 0 of 6; (dose: 25.0 mg/kg/injection, schedule: Q01DX009 (ip), vehicle: saline with Tween-80) 0 of 6.

Regarding `O=C(COc1ccc(Cl)cc1)OC1CN2CCC1CC2` (centres undefined), the survivor count is recorded as 3 of 3 (dose: 25.6 mg/kg/injection, schedule: Q04DX002 (ip), vehicle: saline with Tween-80) and 3 of 3 (dose: 400.0 mg/kg/injection, schedule: Q04DX002 (ip), vehicle: saline with Tween-80). The T/C is 105 % of control (dose: 64.0 mg/kg/injection, schedule: Q04DX002 (ip), vehicle: saline with Tween-80) and 98 % of control (dose: 160.0 mg/kg/injection, schedule: Q04DX002 (ip), vehicle: saline with Tween-80).

Take `C[N+]1(Cc2ccccc2)CC12CCCCC2` (centres undefined): the T/C is 100 % of control (dose: 12.5 mg/kg/injection, schedule: Q01DX009 (ip), vehicle: saline); 100 % of control (dose: 12.5 mg/kg/injection, schedule: Q04DX003 (ip), vehicle: saline); 103 % of control (dose: 25.0 mg/kg/injection, schedule: Q01DX009 (ip), vehicle: saline); 110 % of control (dose: 25.0 mg/kg/injection, schedule: Q04DX003 (ip), vehicle: saline); 92 % of control (dose: 50.0 mg/kg/injection, schedule: Q04DX003 (ip), vehicle: saline). Also, the survivor count is, setting by setting: (dose: 50.0 mg/kg/injection, schedule: Q01DX009 (ip), vehicle: saline) 4 of 6; (dose: 100.0 mg/kg/injection, schedule: Q04DX003 (ip), vehicle: saline) 0 of 6; (dose: 200.0 mg/kg/injection, schedule: Q04DX003 (ip), vehicle: saline) 0 of 6; (dose: 400.0 mg/kg/injection, schedule: Q04DX003 (ip), vehicle: saline) 0 of 6.

Turning to `FC1(F)SC(Cl)C(Cl)(Cl)C1(F)F` (centres undefined), the T/C was 97 % of control (dose: 100.0 mg/kg/injection, schedule: Q04DX002 (ip), vehicle: saline) and 97 % of control (dose: 200.0 mg/kg/injection, schedule: Q04DX002 (ip), vehicle: saline). The survivor count (dose: 400.0 mg/kg/injection, schedule: Q04DX002 (ip), vehicle: saline) is recorded as 3 of 3.
